The target in experiment [1] is cYFP-VAP27-3 (Arabidopsis thaliana). Nature of the experiment: split reporter; BiFC: nYFP fusions of Exo84 isoforms (pCL112-nYFP) and cYFP fusions of VAP27-1/-3 (pCL113-cYFP) transiently co-expressed in N. benthamiana leaf cells; YFP fluorescence by confocal microscopy.
Experiment [2] addresses VAP27-1 without the transmembrane domain in pGBKT7 (yeast two-hybrid bait) (Arabidopsis thaliana). Description: two-hybrid; one-on-one Y2H in yeast AH109; Exo84 isoforms in pGADT7-GW (prey), VAP27-1/-3 without transmembrane domain in pGBKT7 (bait); growth on SD/-Leu-His-Trp with 5 mM 3-AT.
Experiment [3] addresses VAP27-3 without the transmembrane domain in pGBKT7 (yeast two-hybrid bait) (Arabidopsis thaliana). The experiment is described as above.

These are yes or no findings as the source states them, for the method shown. Binding calls can cover weak binding; strength is not graded here. For part of these data: In cells and extracts the contact can be indirect. For part of these data: Where a sequence is shown, tags or fusion partners need not be part of it.

B1: nYFP-fused Exo84a (BiFC construct) (protein, UniProt F4I4B6 1-754)
chain: MEARERGSMSSSIGNSAELEGNLTLSDRLKVFKGSTFDPDAYVTSKCQRMNEKETRHLSSYLVELKKASAEEMRKSVYANYAAFIRTSKEISALEGQLLSMRNLLSAQAALVHGLADGVHISSLCADDADDLRDEDLYDMDNKQLSNIENWVVEFFDRLEVLLAEKRVEESMAALEEGRRVAVEAHEKRTLSPTTLLSLNNAIKEKRQELADQLAEAISQPSTRGGELRSAVLSLKKLGDGSRAHTLLLRSYERRLQANIQSLRASNTSYGVAFAAALSQLVFSTIAQAASDSQAVVGEDPAYTSELVTWAVKQAESFALLLKRHTLASSAAAGSLRVTAECVQLCASHCSSLESRGLALSPVLLKHFRPGVEQALTGNLKRIEQSSAALAASDDWSLSYTPTGSRASSTTPTAPHLKLSISAQRFNSMVQEFLEDAGPLDEALQLDGIALDGVLQVFNSYVDLLINALPGSAENEENPVHRIVKVAETESQQTALLVNALLLADELIPRSASRILPQGTSQSTPRRGSSDRQNRPEQREWKKKLQRSVDRLRDSFCRQHALELIFTEEGEVRLSSEIYILMDETTEEPEWFPSPIFQELFAKLTRIAMIVSDMFVGRERFATILLMRLTETVILWISDDQSFWEEMETGDKPLGPLGLQQFYLDMEFVMIFASQGRYLSRNLHQVIKNIIARAVEAVSATGLDPYSTLPEEEWFAEVAQIAIKMLMGKGNFGGHGERDVTSPSVSSAKSYTSN
In the case of B1, the binding entry in experiment [1] is “no binding”.

B2: Exo84a in pGADT7-GW (yeast two-hybrid prey) (protein, UniProt F4I4B6 1-754)
chain: B1 chain
In the case of B2, the binding result in experiment [2] and in experiment [3] was “no binding” each time.

B3: nYFP-fused Exo84b (BiFC construct) (protein, UniProt Q9LTB0 1-752)
chain: MAAKTARSKATPTKENGVRVEEGLSLFKSDKFDADAYVQSKCSINEKDIKQLCSYLLDLKRASAEEMRRSVYANYPAFIRTSKEISDLEGELSSIRNLLSTQATLIHGLADGVNIDDDKVSDESLANGLLNFEDNGLSDLEKWATEFPDHLDALLAERRVDEALAAFDEGEILVSQANEKHTLSSSVLSSLQFAIAERKQKLADQLAKAACQPSTRGGELRSAIAALKRLGDGPRAHTVLLDAHFQRYQYNMQSLRPSSTSYGGAYTAALSQLVFSAISQASSDSLGIFGKEPAYSSELVTWATKQTEAFSLLVKRHALASSAAAGGLRAAAECAQIALGHCSLLEARGLSLCPVLLKHFKPIVEQALEANLKRIEENTAAMAAADDWVLTSPPAGSRHASTAFQNKLTSSAHRFNLMVQDFFEDVGPLLSMQLGSKALEGLFRVFNSYVDVLVRALPGSIEEEDPNFESSCNKIVQMAETEANQLALLANASLLADELLPRAAMKLSLDQTGQRTDDLRRPLDRQNRNPEQREWKRRLLSTVDKLKDAFCRQHALDLIFTEEGDSHLSADMYVNIDENGEDVDFFPSLIFQELFAKLNRMASLAADMFVGRERFAISLLMRLTETVILWLSGDQSFWDDIEEGPRPLGPLGLRQLYLDMKFVICFASQGRYLSRNLHRGTNEIISKALAAFTATGIDPYSELPEDDWFNDICVDAMERLSGKTKGNNGDVHSPTASVSAQSVSSARSHGSY
Take B3: in experiment [1], the binding entry is given as “no binding”.

B4: Exo84b in pGADT7-GW (yeast two-hybrid prey) (protein, UniProt Q9LTB0 1-752)
chain: B3 chain
Turning to B4, the binding result in experiment [2] and in experiment [3] was “no binding” throughout.

B5: nYFP-Exo84c (protein, UniProt Q9SY60 1-769)
chain: MESSEEDDEYPFIESITPQSKIDSVHQSLTEKGIRKLCCELMDLKDAVENMCGDMRTKYLAFLRISEEAVEMEHELVELRKHISSQGILVQDLMAGVCREMDDWNRLPGDVHDAEVEEDPLPNEVTDPKSEFLEKIDLLLAEHKVDEALEAMDAEERSSPDLKGSVEMSSYKSAFMERKAVLEDQLLRIAKQPSICVAELKHALIGLIRLGKGPSAHQLLLKFYATSLRRRIEAFLPSCLTCPNTFPATLSKLVFSNISVATKESAAMFGDDDNPAYSNKVVQWAEREVEYLVRLVKENASPSETASALRAASICLQDCLNYCKVLEPQGLFLSKLFLVLFRPYVEEVLELNFRRARRVIFDLNETDEGLESPSDFVTILSEFAIASDTMMTDCSIRFMQIVQDILEQLTHLVVLHFGESVLTRILQLYDKYIDFLIKALPGHSDEDGLPELQDNTVLARAETDSEQLALLGAAFTILDELLPRSLVKVWKLQIENGGGEGENSAALNSSAAPELKEWKRHMVQAFDKLRNYFCLQFVLSFIYSREGLTRLDALIYLTETPDDLHLPSLPFQALFSKLQQLAIIAGDVLLGKEKLQKILLARLTETVIIWLSNEQEFWSAFEDESNPLQPSGLQQLILDMNFTVEIARFAGYPFKVVQNHASVVINRAINIFSERGINPQSSLPKTEWFTEAAKSAINRLLMGSEDASEPEEYECEEEEEDDHHIVLPEMDDDSDSEDTSSLSTVDSFESFASASMADLESPSFTDSES
As for B5, the binding result in experiment [1] was “binds”.

B6: Exo84c in pGADT7-GW (yeast two-hybrid prey) (protein, UniProt Q9SY60 1-769)
chain: B5 chain
For the molecule B6, the binding entry in experiment [2] and in experiment [3] was “binds” in each case.
